From patent publication US20220411488A1
These are yes or no findings as the source states them, for the method shown. Some results given as binding are weak or reduced against the parent protein; the word gives no strength.

Target: human ITIH-1 antigen (inter-alpha trypsin inhibitor heavy chain 1) (human)
Experiment: biolayer interferometry, AR2G biosensor (AbClon Inc.)

Row | Binder | binding
1 | monoclonal antibody 5D6 against ITIH1 (antibody, V domains shown) VH: EVQLQQSGAELVKPGTSVKMSCKASGYTFTSYWMHWVRQRPGQGLEWIGDIYPGTDSTNYNEKFKSKATLTVDTSSSTAYMQLSSLTSEDSAVYYCSRSGDYYDYWGQGTTVTVSS VL: DIVLTQSPASLAVSLGQRATISCRASQSVSTSSYSYMHWYQQKPGQPPKLLIKYASNLESGVPARFSGSGSGTDFTLNIHPVEEEDTATYYCQHSWEIPWTFGGGTKLEIK | binds
2 | monoclonal antibody 9E1 against ITIH1 (antibody, V domains shown) VH: EVQLQQSGTVLARPGASVKMSCRASGYSFTSYWMHWVKQRPGQGLEWIGSIYPGNTDTNYNQKFKGKAKLTAVTSASTAYMELSSLTNEDSAVYYCTRYGTSEGFAYWGQGTLVTVSA VL: DIVMTQSPASLAVSLGQRATISCRASQSVSTSSYSYMHWYQQKPGQPPKLLIKYASNLESGVPARFSGSGSGTDFTLNIHPVEEEDSATYYCQHSWEIPPTFGGGTKLEIK | binds
